Consider 42 sequences from PMC7819943, “Rice protein-binding microarrays: a tool to detect cis-acting elements near promoter regions in rice”.

Sequences of proteins named here, by UniProt entry; tags and fusion partners are left off.
UniProt Q0JBA9, entry or part of it: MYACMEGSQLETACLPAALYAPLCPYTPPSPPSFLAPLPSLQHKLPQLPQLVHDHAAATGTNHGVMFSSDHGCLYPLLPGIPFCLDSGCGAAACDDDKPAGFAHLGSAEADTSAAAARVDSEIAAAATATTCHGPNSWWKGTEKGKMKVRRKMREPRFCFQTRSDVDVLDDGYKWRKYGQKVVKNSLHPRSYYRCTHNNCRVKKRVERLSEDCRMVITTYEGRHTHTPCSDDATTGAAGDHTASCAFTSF

The list shows a part of the results.

The target in the test is OsWRKY34 (Oryza sativa, UniProt Q0JBA9 1-250). As to the kind of experiment: protein-binding microarray (RPBM); PBS, 2% BSA, 51.3 ng/ul salmon testes DNA, 50 uM zinc acetate, 200 nM TF, 25 C, 1 h; high values mean tight binding. To be noted: protein: recombinant; tags: N-terminal polyhistidine and DsRed monomer fusion (pET32a); label: CyDye5-dUTP incorporated in the synthesized complementary strand; 3' TTTTT single-stranded linker to array surface; dsDNA, one strand shown. The essentials: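 The binding signal is fluorescence intensity per feature, in arbitrary units, read on an Axon 4000B scanner. Polyhistidine- and DsRed-tagged transcription factors (N-terminal fusions) from E. coli BL21-CodonPlus were purified on Ni–NTA and applied at 200 nM for 1 h at 25 °C to a double-stranded, BSA-blocked custom Agilent array in buffer with 50 µM zinc acetate.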
“CCGGCGACGTGGTCGCGCATTCCTCTTCTCGCCGGCAGACCGGAGTCACCTAGTGCAG”: the binding signal was 8080 fluorescence intensity (a.u.). For “CCTCATCTTCTCACCGTTGCCGTCTTTGTGGTGAAGCCGGCGGAGTCACCTAGTGCAG” the value was 8540 fluorescence intensity (a.u.). Turning to “GGTTCCCACTACACTACGCCTTTCTACTGGGCTCTTCATGCGGAGTCACCTAGTGCAG”, the binding signal was 8960 fluorescence intensity (a.u.). For “CTTGCTCGGTTTCTTTCTCCCGCGGACACTGAAACCCAACCGGAGTCACCTAGTGCAG” the value was 8520 fluorescence intensity (a.u.); for “TTTCCTTGAACCAGCACTGACATTTTACCATGTGTTCATTCGGAGTCACCTAGTGCAG”, 10700 fluorescence intensity (a.u.); for “ACCGGATCGCATCACACTCGCAGCCAACTCGAAGCAGCAACGGAGTCACCTAGTGCAG”, 8140 fluorescence intensity (a.u.). On to “CGTATTTTGATATATAACGTTGTTTACTTTTTGAGATATACGGAGTCACCTAGTGCAG”, for which the binding signal is 8650 fluorescence intensity (a.u.). Take “AAGTTTGTTCTTTTTGGAAATACAGTTCCGTATTTAAGTCCGGAGTCACCTAGTGCAG”: the binding signal was 8260 fluorescence intensity (a.u.). Take “TCTTCTCTTCTCTTCTCTTCTCTTCCATCTCCTAATCTTCCGGAGTCACCTAGTGCAG”: the binding signal is 8620 fluorescence intensity (a.u.). As for “TTCTCTCTCTAAAGCTATTTTCTCTCTCTCTCTGTGCTGTCGGAGTCACCTAGTGCAG”, the binding signal is 8600 fluorescence intensity (a.u.).

In the case of “CTATTTTCAGCTATAGTTTTTGTCACCATCTAGTTATTATCGGAGTCACCTAGTGCAG”, the binding signal is 10200 fluorescence intensity (a.u.).

For “TATACCTGCTTTGCTCGTCGCACGTTAGATTATCCCAACTCGGAGTCACCTAGTGCAG”, the binding signal was 11000 fluorescence intensity (a.u.).

As to “GTAATTAATCTACCATGGCATTTGGCGCGCCTAGTATTTACGGAGTCACCTAGTGCAG”, the binding signal is 10400 fluorescence intensity (a.u.). For “GAAGCCTTCATATCAATCTGTCATACACATACAACTTTTCCGGAGTCACCTAGTGCAG” the value was 8380 fluorescence intensity (a.u.); for “AGAGTTATATCTCCCACCTCTCCCGCCGCGACCCAAGTCTCGGAGTCACCTAGTGCAG”, 9310 fluorescence intensity (a.u.); for “TCGTTTCATCCTGCTGTCACCACGTAGTAACTCGTTTTCCCGGAGTCACCTAGTGCAG”, 10900 fluorescence intensity (a.u.). For “CTCCAACCACCCCTAGACACGTGTCCAGAGAATCTCTAACCGGAGTCACCTAGTGCAG”, the binding signal is 8170 fluorescence intensity (a.u.). On to “TATCTCCAAGGTTTTGGGCTTTGCAATTTTTGGCGGTAACCGGAGTCACCTAGTGCAG”, for which the binding signal is 10200 fluorescence intensity (a.u.). For “TCCCGGATGGCTCTCATCGCCGGCTCCTACGAGCGCTTCACGGAGTCACCTAGTGCAG” the value was 9840 fluorescence intensity (a.u.); for “TCCCAGCCAGCCGCGGAGCCGCTTCTACTCCCACGCCTCTCGGAGTCACCTAGTGCAG”, 10700 fluorescence intensity (a.u.).

Take “TACCTTCCTTAACTATTGCACAGGTTCAAATCGTATCCCTCGGAGTCACCTAGTGCAG”: the binding signal is 8730 fluorescence intensity (a.u.).

Turning to “TGATATACTATCCATCACTGTTAACTGTTCACCATTCATACGGAGTCACCTAGTGCAG”, the binding signal was 9170 fluorescence intensity (a.u.). With “ATCCTGGTGAGCACATCCTCCGCCACCGCTGCCTGCTCCGCGGAGTCACCTAGTGCAG”, the binding signal is 10300 fluorescence intensity (a.u.). For “GGCGAGTTCTAAAATTATTTTTTTCATTCGTGTCCGAAAACGGAGTCACCTAGTGCAG” the value was 9110 fluorescence intensity (a.u.); for “CCTCCTTGATGAAGTCTGCTCTACTGCTTTCTTTCTTTCTCGGAGTCACCTAGTGCAG”, 9190 fluorescence intensity (a.u.); for “TTTTTTAATGGCACACCATCTCACCATCTGCCCTTTCTTACGGAGTCACCTAGTGCAG”, 8550 fluorescence intensity (a.u.).

Consider “CGGCGAGAGGGGAATCAATCCTGAAGTGAGGGAGGGGAGGCGGAGTCACCTAGTGCAG”, for which the binding signal was 8780 fluorescence intensity (a.u.). In the case of “TCCCTTATTTTCTTGCGCAATCATTACCCACAACCTCAAACGGAGTCACCTAGTGCAG”, the binding signal is 14300 fluorescence intensity (a.u.).

Turning to “CTCATCGAATCACAACCCTCCACCATTCACTTATACCTATCGGAGTCACCTAGTGCAG”, the binding signal was 9320 fluorescence intensity (a.u.). On to “TCTCTGATGGATAGGTGACATGGTGTGGTGTGCTTGTTTTCGGAGTCACCTAGTGCAG”, for which the binding signal is 9500 fluorescence intensity (a.u.). With “TATAACCTTATCTTTTTCTTATACTTATGCTTATATTTATCGGAGTCACCTAGTGCAG” the figure was 8880 fluorescence intensity (a.u.).

For the sequence “CCACCATTTTTAATTTTTTTTAGCTGATATGTGGGCCCATCGGAGTCACCTAGTGCAG”, the binding signal was 8910 fluorescence intensity (a.u.). With “CACTCGTTTTCAGATCATTTTCCATGGCGCCATGGCGCCTCGGAGTCACCTAGTGCAG” the figure was 8500 fluorescence intensity (a.u.); with “ATCCGTATTTTTGTTCCTCCTTTCCTTTCTTTTTGGCAAACGGAGTCACCTAGTGCAG”, 9580 fluorescence intensity (a.u.). For the sequence “CGTCCTAGCATTTTCTTACTAAATTCTTACTGATGTGTCACGGAGTCACCTAGTGCAG”, the binding signal was 8180 fluorescence intensity (a.u.). For “GGCCTCTCAACTGACCCGTCTGCGAAATATGTTTATTTTCCGGAGTCACCTAGTGCAG” the value was 8060 fluorescence intensity (a.u.); for “GTGCTAGTCTCCGCTGCCCCTTTCTCTTGGTCCAACTTACCGGAGTCACCTAGTGCAG”, 10500 fluorescence intensity (a.u.); for “GTCCGCCTAAAGAAAAACACGCACACACTTCTTCTGCTTCCGGAGTCACCTAGTGCAG”, 8770 fluorescence intensity (a.u.). As for “GGTTATTGCAGCTGTTCTTGGTGTCTGGTGAGTGGTGAGTCGGAGTCACCTAGTGCAG”, the binding signal was 11800 fluorescence intensity (a.u.). Consider “TTTTCTCACATGTTTGACCATTCGTCTTAATCAAAAAATTCGGAGTCACCTAGTGCAG”, for which the binding signal was 8160 fluorescence intensity (a.u.). With “TAGGACGGTTAATTTCGTTGCTCTCCTCACTTCCCAACCGCGGAGTCACCTAGTGCAG” the figure was 8250 fluorescence intensity (a.u.). Take “CTAATTTCTATTTTTACGTATACTCAATTAATATCCAATTCGGAGTCACCTAGTGCAG”: the binding signal is 8100 fluorescence intensity (a.u.).
